Measured values as given in paper PMC12892887.
No constants are given. Whether binding was seen depends on the method and setting. Binding seen in cells or lysates may run through a third protein. Here binding means that the protein was enriched with, or labelled near, the bait; the list need not be complete. For some of these results: Sequences can lack the tags named with a protein. Blank lines part the entries; values can stand above or below the molecule they belong to.

Protein sequences, listed by entry. Tags and fused reporters are not part of them.
UniProt Q9QZR5: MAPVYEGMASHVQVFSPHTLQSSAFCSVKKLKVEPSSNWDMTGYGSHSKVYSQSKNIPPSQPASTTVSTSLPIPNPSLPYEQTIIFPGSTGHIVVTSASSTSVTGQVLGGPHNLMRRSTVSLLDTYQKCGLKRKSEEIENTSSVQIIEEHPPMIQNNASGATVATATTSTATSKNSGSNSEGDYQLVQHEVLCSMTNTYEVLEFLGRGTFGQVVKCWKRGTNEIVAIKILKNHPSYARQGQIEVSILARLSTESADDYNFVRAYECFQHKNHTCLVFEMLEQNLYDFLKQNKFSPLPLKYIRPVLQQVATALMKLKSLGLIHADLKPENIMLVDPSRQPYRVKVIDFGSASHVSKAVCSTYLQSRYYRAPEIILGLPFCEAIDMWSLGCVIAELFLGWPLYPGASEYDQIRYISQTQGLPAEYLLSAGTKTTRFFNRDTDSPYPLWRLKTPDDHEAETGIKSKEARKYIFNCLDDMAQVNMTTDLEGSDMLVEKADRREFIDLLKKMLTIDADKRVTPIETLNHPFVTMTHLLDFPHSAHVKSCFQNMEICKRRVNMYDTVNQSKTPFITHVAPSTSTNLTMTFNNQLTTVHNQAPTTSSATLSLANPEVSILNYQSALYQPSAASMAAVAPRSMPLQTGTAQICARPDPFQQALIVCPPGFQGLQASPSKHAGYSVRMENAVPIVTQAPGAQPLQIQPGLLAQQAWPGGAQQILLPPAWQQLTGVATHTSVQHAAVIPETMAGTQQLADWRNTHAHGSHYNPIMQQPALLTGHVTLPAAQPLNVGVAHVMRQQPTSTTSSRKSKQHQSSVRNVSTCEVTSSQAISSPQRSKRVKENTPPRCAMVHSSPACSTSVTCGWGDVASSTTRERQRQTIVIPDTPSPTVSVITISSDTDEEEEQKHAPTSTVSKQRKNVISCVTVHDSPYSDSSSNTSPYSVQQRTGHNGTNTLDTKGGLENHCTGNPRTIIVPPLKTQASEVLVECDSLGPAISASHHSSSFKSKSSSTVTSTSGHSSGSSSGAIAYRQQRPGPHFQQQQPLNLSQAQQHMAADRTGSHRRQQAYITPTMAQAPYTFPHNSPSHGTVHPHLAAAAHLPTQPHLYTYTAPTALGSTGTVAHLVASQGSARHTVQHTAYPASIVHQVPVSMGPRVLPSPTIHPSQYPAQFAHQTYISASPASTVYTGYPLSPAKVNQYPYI
UniProt Q9WUK4: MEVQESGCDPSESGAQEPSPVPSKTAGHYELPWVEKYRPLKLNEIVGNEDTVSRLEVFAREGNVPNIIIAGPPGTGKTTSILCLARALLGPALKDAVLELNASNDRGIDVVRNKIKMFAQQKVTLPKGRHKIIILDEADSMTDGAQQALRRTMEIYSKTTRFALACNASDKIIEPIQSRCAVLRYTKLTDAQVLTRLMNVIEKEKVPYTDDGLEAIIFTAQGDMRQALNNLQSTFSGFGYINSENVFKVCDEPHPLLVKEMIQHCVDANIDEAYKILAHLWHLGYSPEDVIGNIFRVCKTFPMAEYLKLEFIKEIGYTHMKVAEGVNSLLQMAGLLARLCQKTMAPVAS
UniProt Q9WV30: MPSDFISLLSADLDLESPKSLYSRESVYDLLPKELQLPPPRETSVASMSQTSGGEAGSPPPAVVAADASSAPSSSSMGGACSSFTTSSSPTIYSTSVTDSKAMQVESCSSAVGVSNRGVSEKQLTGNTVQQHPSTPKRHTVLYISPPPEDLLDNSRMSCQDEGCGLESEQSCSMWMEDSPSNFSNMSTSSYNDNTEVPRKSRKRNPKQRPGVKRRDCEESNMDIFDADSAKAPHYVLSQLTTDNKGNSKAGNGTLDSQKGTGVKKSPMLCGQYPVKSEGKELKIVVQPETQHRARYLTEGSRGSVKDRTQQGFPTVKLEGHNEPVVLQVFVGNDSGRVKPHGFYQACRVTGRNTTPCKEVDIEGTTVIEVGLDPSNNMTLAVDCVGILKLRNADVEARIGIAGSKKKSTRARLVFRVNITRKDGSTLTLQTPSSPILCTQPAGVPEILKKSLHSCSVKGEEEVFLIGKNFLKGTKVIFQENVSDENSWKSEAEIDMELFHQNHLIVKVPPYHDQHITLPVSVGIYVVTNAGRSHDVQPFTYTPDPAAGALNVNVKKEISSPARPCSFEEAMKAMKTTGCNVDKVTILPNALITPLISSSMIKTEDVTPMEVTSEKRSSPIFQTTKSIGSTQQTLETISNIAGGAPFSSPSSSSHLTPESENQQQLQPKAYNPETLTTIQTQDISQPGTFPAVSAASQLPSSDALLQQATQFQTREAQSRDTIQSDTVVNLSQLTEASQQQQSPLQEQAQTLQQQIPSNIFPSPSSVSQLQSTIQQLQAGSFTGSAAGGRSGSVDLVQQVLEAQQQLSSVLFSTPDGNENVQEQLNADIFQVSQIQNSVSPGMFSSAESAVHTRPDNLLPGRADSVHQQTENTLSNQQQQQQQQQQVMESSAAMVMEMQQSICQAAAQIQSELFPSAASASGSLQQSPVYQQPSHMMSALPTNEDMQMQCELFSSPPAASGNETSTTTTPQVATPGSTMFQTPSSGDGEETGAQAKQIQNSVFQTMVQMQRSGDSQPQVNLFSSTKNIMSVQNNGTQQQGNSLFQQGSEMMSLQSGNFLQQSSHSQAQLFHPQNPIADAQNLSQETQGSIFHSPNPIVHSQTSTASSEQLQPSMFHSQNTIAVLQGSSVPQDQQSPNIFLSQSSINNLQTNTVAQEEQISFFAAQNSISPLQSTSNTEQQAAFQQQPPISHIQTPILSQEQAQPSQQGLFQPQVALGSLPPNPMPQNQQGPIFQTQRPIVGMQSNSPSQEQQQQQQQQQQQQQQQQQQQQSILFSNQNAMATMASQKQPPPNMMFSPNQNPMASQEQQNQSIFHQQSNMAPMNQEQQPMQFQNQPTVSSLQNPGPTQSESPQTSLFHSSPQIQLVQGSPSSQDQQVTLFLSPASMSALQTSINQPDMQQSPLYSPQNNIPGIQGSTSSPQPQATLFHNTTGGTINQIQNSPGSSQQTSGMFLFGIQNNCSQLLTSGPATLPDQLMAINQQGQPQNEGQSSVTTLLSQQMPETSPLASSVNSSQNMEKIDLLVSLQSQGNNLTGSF
UniProt P70268: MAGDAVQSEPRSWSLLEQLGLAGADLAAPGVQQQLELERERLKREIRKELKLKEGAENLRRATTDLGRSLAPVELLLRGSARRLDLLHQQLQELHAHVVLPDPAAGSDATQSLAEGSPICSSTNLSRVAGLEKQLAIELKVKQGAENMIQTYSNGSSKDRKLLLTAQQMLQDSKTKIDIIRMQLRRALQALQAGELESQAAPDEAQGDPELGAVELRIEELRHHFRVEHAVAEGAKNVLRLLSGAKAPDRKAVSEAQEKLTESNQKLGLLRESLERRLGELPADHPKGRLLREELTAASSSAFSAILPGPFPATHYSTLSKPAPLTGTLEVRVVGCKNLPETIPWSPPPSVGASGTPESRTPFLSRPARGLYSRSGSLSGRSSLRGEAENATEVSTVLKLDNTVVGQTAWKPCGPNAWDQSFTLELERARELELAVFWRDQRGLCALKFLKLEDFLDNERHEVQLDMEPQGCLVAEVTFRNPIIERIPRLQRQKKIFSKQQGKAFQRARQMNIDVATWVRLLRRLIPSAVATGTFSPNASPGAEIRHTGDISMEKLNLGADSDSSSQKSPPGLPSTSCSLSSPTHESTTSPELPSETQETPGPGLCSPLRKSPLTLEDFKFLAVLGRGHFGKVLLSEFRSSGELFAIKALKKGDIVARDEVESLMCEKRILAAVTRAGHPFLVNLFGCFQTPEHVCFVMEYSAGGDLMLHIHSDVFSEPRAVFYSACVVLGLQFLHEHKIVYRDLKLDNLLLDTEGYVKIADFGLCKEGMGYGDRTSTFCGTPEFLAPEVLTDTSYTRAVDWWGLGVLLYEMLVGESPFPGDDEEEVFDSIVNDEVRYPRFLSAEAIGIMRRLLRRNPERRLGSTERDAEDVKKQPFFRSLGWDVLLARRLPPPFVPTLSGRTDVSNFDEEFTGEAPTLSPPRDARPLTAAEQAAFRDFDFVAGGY
UniProt Q6PR54: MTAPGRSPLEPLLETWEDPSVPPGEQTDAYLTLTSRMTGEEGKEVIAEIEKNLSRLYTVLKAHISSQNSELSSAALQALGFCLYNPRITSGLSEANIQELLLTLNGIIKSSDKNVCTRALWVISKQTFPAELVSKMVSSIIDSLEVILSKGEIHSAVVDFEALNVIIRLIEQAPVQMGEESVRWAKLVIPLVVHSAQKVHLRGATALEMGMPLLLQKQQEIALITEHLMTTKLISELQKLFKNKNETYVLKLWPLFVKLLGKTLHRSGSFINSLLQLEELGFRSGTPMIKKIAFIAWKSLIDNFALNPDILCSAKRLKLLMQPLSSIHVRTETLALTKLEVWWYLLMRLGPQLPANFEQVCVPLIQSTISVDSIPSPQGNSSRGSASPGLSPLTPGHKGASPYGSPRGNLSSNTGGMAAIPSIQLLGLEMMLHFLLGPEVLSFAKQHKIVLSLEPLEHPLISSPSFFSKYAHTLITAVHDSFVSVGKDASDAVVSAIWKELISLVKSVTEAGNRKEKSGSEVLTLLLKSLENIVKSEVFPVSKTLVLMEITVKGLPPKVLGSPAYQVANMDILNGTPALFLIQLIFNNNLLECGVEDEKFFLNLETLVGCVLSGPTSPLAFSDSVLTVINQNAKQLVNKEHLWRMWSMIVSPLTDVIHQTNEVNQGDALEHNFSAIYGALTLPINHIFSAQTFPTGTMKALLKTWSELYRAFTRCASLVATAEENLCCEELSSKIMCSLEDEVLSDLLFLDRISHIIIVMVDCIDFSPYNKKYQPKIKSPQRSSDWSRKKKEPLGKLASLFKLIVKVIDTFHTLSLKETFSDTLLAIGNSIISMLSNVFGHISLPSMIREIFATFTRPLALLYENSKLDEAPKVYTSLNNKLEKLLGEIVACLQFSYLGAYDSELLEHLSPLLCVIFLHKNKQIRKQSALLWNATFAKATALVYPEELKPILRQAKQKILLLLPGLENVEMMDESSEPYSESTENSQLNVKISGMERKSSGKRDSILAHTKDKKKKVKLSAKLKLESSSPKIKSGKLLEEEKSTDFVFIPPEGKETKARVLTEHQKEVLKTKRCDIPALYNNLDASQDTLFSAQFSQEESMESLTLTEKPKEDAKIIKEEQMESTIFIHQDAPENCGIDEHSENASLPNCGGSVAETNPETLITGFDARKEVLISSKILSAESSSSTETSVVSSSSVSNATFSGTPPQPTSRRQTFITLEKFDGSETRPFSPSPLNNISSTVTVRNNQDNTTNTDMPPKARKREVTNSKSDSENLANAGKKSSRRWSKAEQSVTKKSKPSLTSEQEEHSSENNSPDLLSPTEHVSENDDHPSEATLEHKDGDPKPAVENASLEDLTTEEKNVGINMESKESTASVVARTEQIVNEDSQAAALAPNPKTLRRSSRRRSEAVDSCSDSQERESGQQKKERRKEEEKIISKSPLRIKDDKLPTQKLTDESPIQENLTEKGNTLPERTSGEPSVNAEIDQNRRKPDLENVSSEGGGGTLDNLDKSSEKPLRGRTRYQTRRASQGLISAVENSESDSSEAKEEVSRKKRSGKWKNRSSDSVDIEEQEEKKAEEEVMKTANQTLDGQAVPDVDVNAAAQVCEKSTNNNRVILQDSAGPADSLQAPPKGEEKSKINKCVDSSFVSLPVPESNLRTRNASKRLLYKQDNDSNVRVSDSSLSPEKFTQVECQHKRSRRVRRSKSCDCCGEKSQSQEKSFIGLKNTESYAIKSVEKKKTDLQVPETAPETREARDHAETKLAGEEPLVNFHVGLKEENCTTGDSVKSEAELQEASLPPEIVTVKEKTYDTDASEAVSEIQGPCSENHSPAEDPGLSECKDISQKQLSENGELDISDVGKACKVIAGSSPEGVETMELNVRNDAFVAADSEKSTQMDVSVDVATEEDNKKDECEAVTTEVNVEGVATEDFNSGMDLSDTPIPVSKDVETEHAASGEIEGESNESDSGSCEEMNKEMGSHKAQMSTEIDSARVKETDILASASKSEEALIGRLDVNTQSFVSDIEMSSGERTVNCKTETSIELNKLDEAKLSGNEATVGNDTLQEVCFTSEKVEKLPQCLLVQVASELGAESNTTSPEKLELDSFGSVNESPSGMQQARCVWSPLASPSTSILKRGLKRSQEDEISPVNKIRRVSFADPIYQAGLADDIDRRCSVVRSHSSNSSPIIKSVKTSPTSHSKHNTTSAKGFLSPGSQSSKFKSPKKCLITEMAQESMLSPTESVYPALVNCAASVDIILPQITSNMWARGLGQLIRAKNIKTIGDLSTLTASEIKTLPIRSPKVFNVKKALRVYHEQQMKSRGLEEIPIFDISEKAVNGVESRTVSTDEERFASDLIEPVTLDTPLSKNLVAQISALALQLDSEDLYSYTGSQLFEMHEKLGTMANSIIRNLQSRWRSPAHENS

Assays:
[1] = molecular target: T1, HDAC8 (mouse (endogenous in Teffs and Tregs)) (UniProt Q8VH37); assay: affinity purification with mass spectrometry; Treg lysate (IP lysis buffer, 200 ug) incubated overnight at 4°C with HDAC8 antibody on protein A/G magnetic beads; IgG control; on-bead digestion, data-independent acquisition
T1 sequence: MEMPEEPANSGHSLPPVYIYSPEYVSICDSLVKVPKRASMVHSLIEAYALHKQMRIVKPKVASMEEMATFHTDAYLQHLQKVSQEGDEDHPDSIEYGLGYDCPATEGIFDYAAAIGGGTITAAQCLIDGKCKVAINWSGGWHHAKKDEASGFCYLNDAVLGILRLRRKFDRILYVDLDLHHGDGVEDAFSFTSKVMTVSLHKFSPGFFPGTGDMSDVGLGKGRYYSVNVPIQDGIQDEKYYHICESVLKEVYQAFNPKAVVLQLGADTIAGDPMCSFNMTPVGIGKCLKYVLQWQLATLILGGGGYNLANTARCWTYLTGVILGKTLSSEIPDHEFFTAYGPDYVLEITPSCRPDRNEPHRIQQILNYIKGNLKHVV

[2] = molecular target: T1, HDAC8 (mouse (endogenous in Teffs and Tregs)); assay: affinity purification with mass spectrometry; Teff lysate (IP lysis buffer, 200 ug) incubated overnight at 4°C with HDAC8 antibody on protein A/G magnetic beads; IgG control; on-bead digestion, data-independent acquisition

Molecule: Hipk2 (from UniProt Q9QZR5 1-1196)
binding [2]: binds
binding [1]: binds

Molecule: Fastkd3 (mouse (endogenous in Tregs))
binding [1]: binds

B1: Znf639 (protein, UniProt Q99KZ6 1-485)
chain: MNEYPKKRKRKTLHPSRYSDSSGISRIADGVSGIFSDHCYSVCSMRQPDLKYFDNKDDDSDPETANDLPKFADGTKARNRNQSYLVPSPVLRILDHTVFSTEKSTEVEICDEECASPESVHQHTQEESPIEVHTSEDVPIAVEVHAISEDYDIEAENNSSESLQDQADEEPPAKLCKILDKGQALNVTAQQKWPLLRANSSGLYKCELCEFNSKYFSDLKQHVILKHKRTDSNVCRVCKESFSTNMLLIEHAKLHEEDPYICKYCDYKTVIFENLSQHIADTHFSDHLYWCEQCDVQFSSSSELYLHFQEHSRDEQYLCQFCEHETGDPEDLHSHVVNEHARRLIELSDKCGSGGHGQCSLLSKITFDKCKNFFVCQVCGFRSRLHTNVNRHVAIEHTKIFPHVCDDCGKGFSSMLEYCKHLNSHLSEGIYLCQYCEYSTGQIDDLKIHLDFKHSADLPHKCSECLMRFGNERDLLGHLQVHETT
binding [2]: binds
binding [1]: binds

B2: Lkzf5 (protein, UniProt Q8BU00 1-419)
chain: MGEKKPEPLDFVKDFQEYLTQQTHHVNMISGSVSGDKEAETLQGAGTDGDQNGLDHPSVEVSLDENSGMLVDGFERTFDGKLKCRYCNYASKGTARLIEHIRIHTGEKPHRCHLCPFASAYERHLEAHMRSHTGEKPYKCELCSFRCSDRSNLSHHRRRKHKMVPIKGTRSSLSSKKMWGVLQKKTSNLGYSRRALINLSPPSMVVQKPDYLNDFTHEIPNIQTDSYEAMAKTTPTGGLPRDPQELMVDNPLNQLSTLAGQLSSLPPENQNPASPDVDACPDEKPFMIQQPSAQAVVSAVSASIPQSSSPTSPEPRPSHSQRNYSPVAGPSSEPSAHTSTPSIGNSQPSTPAPTLPVQDPQLLHHCQHCDVYFADNVLYTVHMGCHGYDSPFQCNVCGCKCKDKYDFACHFARGQHNQH
binding [2]: binds

B3: Crtc3 (protein, UniProt Q91X84 1-619)
chain: MAASPGSGSANPRKFSEKIALHTQRQAEETRAFEQLMTDLTLSRVQFQKLQQLRLTQYHGGSLPNVSQLRNSAPEFQPSLHQADNVRGTRHHGLVERPARNRFHPLHRRSGDKPGRQFDGNAFAASYSSQHLDESWPRQQPPWKEEKHPGFRLTSALNRTNSDSALHTSALSTKPQDPYGGGGQSAWPAPYMGFCDGENDGHAEVAAFPGPLKEENLLNVPKPLPKHLWESKEIQSLSGRPRSCDVGGGNAFPHNGQNTGLSPFLGTLNTGGSLPDLTNLHYSAPLPASLDTSDHLFGSMSVGNSVGNLPAAMTHLGIRTSSGLQSSRSNPSIQATLSKMALSSSLKCHPQPSVANASALHPSLRLFSLSNPSLSTTNLSGPSRRRQPPVSPLTLSPGPEAHQGFSRQLSATSPLNPYPASQMVTSEQSPLSFLPTDAQAQVSPPPPYPTPQELPQPLLQQPHAQEPPTQQPQAAPSLPQSDFQLLTAQGSALTSFFPDVRFDQQPMRPSPAFPQQVPLVQQSHREPQDSFHLRPNPYSSCGSFPGTILTEDTNSNLFKGLSGGLSGMPEVSLDMDTPFPLEEELQIEPLSLDGLNMLSDSSMGLLDPSVEETFRADRL
binding [2]: binds

Continued, values first:

binding [1]: binds
Molecule: Rfc2 (from UniProt Q9WUK4 1-349)

binding [2]: binds
binding [1]: binds
Molecule: Nfat5 (from UniProt Q9WV30 1-1534)

binding [1]: binds
Molecule: Pkn1 (from UniProt P70268 1-946)

binding [1]: binds
Molecule: Rif1 (from UniProt Q6PR54 1-2419)

binding [1]: binds
B4: Gstt3 (protein, UniProt Q99L20 1-241)
chain: MGLELYLDLMSQPCRAVYIFAKKNGIPFQLRTIELLKGQQYTDSFAQVNPLRKVPALKDGDFVLAESVAILLYLSRKYKAPDHWYPQDLQTRARVDEYLAWQHTALRSCCTRAMWQKMMFPVFLGQPVPPEMLASTLAELDGCLQVLEDKFLRNQAFLTGSHISVADLVAITELMHPVSAGCKIFESRPKLAAWRQRVEAEVGESLFQEAHEVVLKAKDMPPLMDPALKEKLKLSVQCLLH
